# Results as given in the supplement of paper PMC4604168 (melanoma cell lines).
# The list shows a part of the results. Repeats are few or missing, and single values can be far off.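 The apoptosis fraction was the count of cleaved-PARP antibody-stained nuclei relative to all DNA-stained nuclei, imaged in 1,536-well plates. Screening doses were set so most cells survived, and baseline and induced cleaved-PARP levels vary greatly across cell lines.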
# Key:
# Assay in all cases: cleaved PARP positive nuclei fraction relative to DMSO control; melanoma cells; higher = more apoptosis
# Conditions in all cases: library dose: low library concentration; 72 h
# A101D = test system: A101D
# A2058 = test system: A2058
# C32 = test system: C32
# CBRC008 = test system: CBRC008 (line from a melanoma biopsy)
# CBRC014 = test system: CBRC014 (line from a melanoma biopsy)
# CBRC016 = test system: CBRC016 (line from a melanoma biopsy)
# CBRC017 = test system: CBRC017 (line from a melanoma biopsy)
# COLO792 = test system: COLO792
# COLO800 = test system: COLO800
# COLO829 = test system: COLO829
# G361 = test system: G361
# IPC-298 = test system: IPC-298
# IST-MEL1 = test system: IST-MEL1
# LOXIMVI = test system: LOXIMVI
# A375 = test system: A375
# CBRC034 = test system: CBRC034 (line from a melanoma biopsy)
# MEL-HO = test system: MEL-HO
SMILES,cleaved PARP positive nuclei fraction (A101D) [%],cleaved PARP positive nuclei fraction (A2058) [%],cleaved PARP positive nuclei fraction (C32) [%],cleaved PARP positive nuclei fraction (CBRC008) [%],cleaved PARP positive nuclei fraction (CBRC014) [%],cleaved PARP positive nuclei fraction (CBRC016) [%],cleaved PARP positive nuclei fraction (CBRC017) [%],cleaved PARP positive nuclei fraction (COLO792) [%],cleaved PARP positive nuclei fraction (COLO800) [%],cleaved PARP positive nuclei fraction (COLO829) [%],cleaved PARP positive nuclei fraction (G361) [%],cleaved PARP positive nuclei fraction (IPC-298) [%],cleaved PARP positive nuclei fraction (IST-MEL1) [%],cleaved PARP positive nuclei fraction (LOXIMVI) [%],cleaved PARP positive nuclei fraction (A375) [%],cleaved PARP positive nuclei fraction (CBRC034) [%],cleaved PARP positive nuclei fraction (MEL-HO) [%]
"O=C(Nc1cc(C(F)(F)F)cc(C(F)(F)F)c1)c1cc(Cl)ccc1O + Cn1cc(/C=C2\C(=O)Nc3cccnc32)c2ccccc21 [GW441756] (first compound 0.016 µM, partner dose 0.4 µM)",13.1,1380,174,63.8,88.6,32.5,81.6,77.6,130,126,97,46,38.1,51.5,–,–,–
"COc1cc([C@@H]2c3cc4c(cc3[C@@H](O[C@@H]3O[C@@H]5CO[C@@H](C)O[C@H]5[C@H](O)[C@H]3O)[C@H]3COC(=O)[C@H]23)OCO4)cc(OC)c1O [etoposide] + Cn1nnc2c(C(N)=O)ncn2c1=O [temozolomide] (first compound 0.02 µM, partner dose 2 µM)",46.9,256,154,88.6,101,82,–,61.2,102,65.7,60.4,182,196,291,115,119,62.2
"N#CC[C@H](C1CCCC1)n1cc(-c2ncnc3[nH]ccc23)cn1 [ruxolitinib] + CCN(CC)CCNC(=O)c1c(C)[nH]c(/C=C2\C(=O)Nc3ccc(F)cc32)c1C [sunitinib] (first compound 1 µM, partner dose 0.4 µM)",84.1,112,38.6,134,98,69.6,92,141,59.1,72.3,131,108,35,184,155,80.2,80.3
"CCCCCCCCCCCCCCCCCCOP(=O)([O-])OC1CC[N+](C)(C)CC1 [Perifosine] + Cn1c(=O)n(-c2ccc(C(C)(C)C#N)cc2)c2c3cc(-c4cnc5ccccc5c4)ccc3ncc21 [NVP-BEZ235] (first compound 0.4 µM, partner dose 0.004 µM)",119,94.8,67.4,119,82.5,102,112,40.7,64.6,106,164,163,132,310,348,49.1,84.6
"CC[C@]1(O)C[C@H]2CN(CCc3c([nH]c4ccccc34)[C@@](C(=O)OC)(c3cc4c(cc3OC)N(C=O)[C@H]3[C@@](O)(C(=O)OC)[C@H](OC(C)=O)[C@]5(CC)C=CCN6CC[C@]43[C@@H]65)C2)C1 [vincristine] + COC(=O)c1sccc1S(=O)(=O)Nc1ccc(Nc2ccccc2)cc1OC [GSK0660] (first compound 0.0001 µM, partner dose 1 µM)",11.5,1840,93.5,313,105,105,137,53,83.9,511,58.5,98.4,94.6,87.3,–,–,–
"O=C(Nc1cc(C(F)(F)F)cc(C(F)(F)F)c1)c1cc(Cl)ccc1O + Cn1c(Nc2ccc(C(F)(F)F)cc2)nc2cc(Oc3ccnc(-c4ncc(C(F)(F)F)[nH]4)c3)ccc21 [CHIR265] (first compound 0.016 µM, partner dose 0.08 µM)",57.8,168,33,138,117,185,102,233,56.7,53,118,110,33.4,152,249,164,57.3
"Cc1cn(-c2cc(NC(=O)c3ccc(C)c(Nc4nccc(-c5cccnc5)n4)c3)cc(C(F)(F)F)c2)cn1 [nilotinib] + CCc1ccc(CCOc2ccc(CC3SC(=O)NC3=O)cc2)nc1 [pioglitazone] (first compound 0.2 µM, partner dose 2 µM)",17.2,24,211,79.2,107,77.1,61.7,170,186,63.6,88.6,45.1,182,111,–,–,–
"O=c1[nH]nc(Sc2ncc([N+](=O)[O-])s2)n1-c1ccc2c(c1)OCCO2 + Nc1nc(F)nc2c1ncn2[C@@H]1O[C@H](CO)[C@@H](O)[C@@H]1O [fludarabine] (first compound 0.2 µM, partner dose 0.2 µM)",51,178,87.7,62.7,105,197,229,97.5,86.6,70,121,90.3,45.4,87.7,6460,87.2,117
"CC[C@]1(O)C[C@H]2CN(CCc3c([nH]c4ccccc34)[C@@](C(=O)OC)(c3cc4c(cc3OC)N(C=O)[C@H]3[C@@](O)(C(=O)OC)[C@H](OC(C)=O)[C@]5(CC)C=CCN6CC[C@]43[C@@H]65)C2)C1 [vincristine] + O=C1NC(=O)/C(=C/c2ccc(-c3ccc(F)cc3O)o2)S1 [AS252424] (first compound 0.0001 µM, partner dose 1 µM)",40,882,408,62.8,77.6,78.7,97.5,83.1,65.5,201,94.2,93,92.7,59.1,–,–,–
"COc1cc([C@@H]2c3cc4c(cc3[C@@H](O[C@@H]3O[C@@H]5CO[C@@H](C)O[C@H]5[C@H](O)[C@H]3O)[C@H]3COC(=O)[C@H]23)OCO4)cc(OC)c1O [etoposide] + O=C(/C=C/c1cccnc1)NCCCCC1CCN(C(=O)c2ccccc2)CC1 [FK866] (first compound 0.02 µM, partner dose 0.01 µM)",98.8,304,74.7,2770,122,536,475,232,204,121,1700,1110,43.9,235,130,1280,118
"O=C(Nc1cc(C(F)(F)F)cc(C(F)(F)F)c1)c1cc(Cl)ccc1O + Nc1ccn([C@@H]2O[C@H](CO)[C@@H](O)C2(F)F)c(=O)n1 [gemcitabine] (first compound 0.016 µM, partner dose 0.0004 µM)",108,83.9,76.2,190,123,99.6,122,60.4,73,119,113,60,76.2,133,152,79.2,42
"O=c1[nH]nc(Sc2ncc([N+](=O)[O-])s2)n1-c1ccc2c(c1)OCCO2 + CS(=O)(=O)c1ccc(C(=O)Nc2ccc(Cl)c(-c3ccccn3)c2)c(Cl)c1 [vismodegib] (first compound 0.2 µM, partner dose 1 µM)",191,69.2,75.3,34.8,108,158,139,70.2,36.6,116,43.8,173,62.4,113,101,136,81.2
"COc1cc([C@@H]2c3cc4c(cc3[C@@H](O[C@@H]3O[C@@H]5CO[C@@H](C)O[C@H]5[C@H](O)[C@H]3O)[C@H]3COC(=O)[C@H]23)OCO4)cc(OC)c1O [etoposide] + Cc1cn(-c2cc(NC(=O)c3ccc(C)c(Nc4nccc(-c5cccnc5)n4)c3)cc(C(F)(F)F)c2)cn1 [nilotinib] (first compound 0.02 µM, partner dose 0.2 µM)",92.9,172,156,103,103,96.3,102,191,204,122,129,58.6,95.4,116,118,32.2,47.9
"N#CC[C@H](C1CCCC1)n1cc(-c2ncnc3[nH]ccc23)cn1 [ruxolitinib] + NC(=O)c1ccc(N(C(N)=O)c2c(F)cccc2F)nc1-c1ccc(F)cc1F [VX702] (first compound 1 µM, partner dose 0.4 µM)",80.8,39.6,81.4,64,89.2,125,119,101,67.1,80,108,171,67.8,95,154,145,146
"CC[C@]1(O)C[C@H]2CN(CCc3c([nH]c4ccccc34)[C@@](C(=O)OC)(c3cc4c(cc3OC)N(C=O)[C@H]3[C@@](O)(C(=O)OC)[C@H](OC(C)=O)[C@]5(CC)C=CCN6CC[C@]43[C@@H]65)C2)C1 [vincristine] + Nc1cccc2c1CN(C1CCC(=O)NC1=O)C2=O [lenalidomide] (first compound 0.0001 µM, partner dose 1 µM)",137,388,102,117,96.4,130,101,128,77.9,168,93.1,180,62.7,195,126,123,40.7
"O=C(Nc1cc(C(F)(F)F)cc(C(F)(F)F)c1)c1cc(Cl)ccc1O + CC(=O)O[C@@]12CO[C@@H]1C[C@H](O)[C@@]1(C)C(=O)[C@H](O)C3=C(C)[C@@H](OC(=O)[C@H](O)[C@@H](NC(=O)OC(C)(C)C)c4ccccc4)C[C@@](O)([C@@H](OC(=O)c4ccccc4)[C@H]21)C3(C)C [Docetaxel] (first compound 0.016 µM, partner dose 0.0001 µM)",54.5,2210,244,481,131,216,183,542,355,107,955,106,161,319,1100,174,158
"N#CC[C@H](C1CCCC1)n1cc(-c2ncnc3[nH]ccc23)cn1 [ruxolitinib] + Cn1sc(=O)n(Cc2ccccc2)c1=O [TDZD-8] (first compound 1 µM, partner dose 0.4 µM)",95.4,108,66.8,68.7,87.3,163,102,71.3,66.7,123,174,83.6,60.4,247,26.3,135,98.4

# Reformatted: results already given
SMILES	cleaved PARP positive nuclei fraction (A101D) [%]	cleaved PARP positive nuclei fraction (A2058) [%]	cleaved PARP positive nuclei fraction (C32) [%]	cleaved PARP positive nuclei fraction (CBRC008) [%]	cleaved PARP positive nuclei fraction (CBRC014) [%]	cleaved PARP positive nuclei fraction (CBRC016) [%]	cleaved PARP positive nuclei fraction (CBRC017) [%]	cleaved PARP positive nuclei fraction (COLO792) [%]	cleaved PARP positive nuclei fraction (COLO800) [%]	cleaved PARP positive nuclei fraction (COLO829) [%]	cleaved PARP positive nuclei fraction (G361) [%]	cleaved PARP positive nuclei fraction (IPC-298) [%]	cleaved PARP positive nuclei fraction (IST-MEL1) [%]	cleaved PARP positive nuclei fraction (LOXIMVI) [%]	cleaved PARP positive nuclei fraction (A375) [%]	cleaved PARP positive nuclei fraction (CBRC034) [%]	cleaved PARP positive nuclei fraction (MEL-HO) [%]
COc1cc([C@@H]2c3cc4c(cc3[C@@H](O[C@@H]3O[C@@H]5CO[C@@H](C)O[C@H]5[C@H](O)[C@H]3O)[C@H]3COC(=O)[C@H]23)OCO4)cc(OC)c1O [etoposide] + Cn1nnc2c(C(N)=O)ncn2c1=O [temozolomide] (first compound 0.02 µM, partner dose 2 µM)	46.9	256	154	88.6	101	82	–	61.2	102	65.7	60.4	182	196	291	115	119	62.2
O=C(Nc1cc(C(F)(F)F)cc(C(F)(F)F)c1)c1cc(Cl)ccc1O + Nc1ccn([C@@H]2O[C@H](CO)[C@@H](O)C2(F)F)c(=O)n1 [gemcitabine] (first compound 0.016 µM, partner dose 0.0004 µM)	108	83.9	76.2	190	123	99.6	122	60.4	73	119	113	60	76.2	133	152	79.2	42
